Experimental data taken from article doi:10.1101/2022.06.12.495191.

B1: MINUSCULE2 (MINU2), endogenous (enzyme, UniProt F4K128 1-1064)
chain: MVKQLQEQEENDPVEKTKSLISALNYLSRDLLLPSHLYASVSSIYHASVSDLSPSPPLRGNSYTPNRGDLMSEFEDALLQQRLNYESGSRLAELKETRYKNRIHNRLSQLEGLPSNRGEDLQEKCLLELYGLKLQELQCRVRGEVSAEYWLRLNCADPERQLYDWGMMRLPRRMYGVGDSFVMEADDQFRNKRDAERLLRLEEEEKNLIETTQRKFFAEVLNAVREFQLQIQASHRRCKQRNDGVQAWHGKQRQRATRAEKLRIMALKSDDQEEYMKLAKESKNEKLTLFLEETNKIFVSLGAAVQRQKDAKLSENTKLLKGSESDLSDVDAPEDVLPAQDIEIIDSDNNDDSNDLLEGERQFNLAIHSIQEKVTKQPSLLQGGELRSYQLEGLQWMVSLYNNDYNGILADEMGLGKTIQTIALIAYLLESKDLHGPHLILAPKAVLPNWENEFALWAPSISAFLYDGSKEKRTEIRARIAGGKFNVLITHYDLIMRDKAFLKKIDWNYMIVDEGHRLKNHECALAKTLGTGYRIKRRLLLTGTPIQNSLQELWSLLNFLLPHIFNSIHNFEEWFNTPFAECGSASLTDEEELLIINRLHHVIRPFLLRRKKSEVEKFLPGKTQVILKCDMSAWQKLYYKQVTDVGRVGLHSGNGKSKSLQNLTMQLRKCCNHPYLFVGADYNMCKKPEIVRASGKFELLDRLLPKLKKAGHRILLFSQMTRLIDLLEIYLSLNDYMYLRLDGSTKTDQRGILLKQFNEPDSPYFMFLLSTRAGGLGLNLQTADTIIIFDSDWNPQMDQQAEDRAHRIGQKKEVRVFVLVSIGSIEEVILERAKQKMGIDAKVIQAGLFNTTSTAQDRREMLEEIMSKGTSSLGEDVPSEREINRLAARTEEEFWMFEQMDEERRKKENYKTRLMEEKEVPEWAYTSETQEDKTNAKNHFGSLTGKRKRKEAVYSDSLSDLQWMKAMESEDEDASKVSQKRKRTDTKTRMSNGSKAEAVLSESDEEKEEEEEERKEESGKESEEENEKPLHSWKTNKKKRSRYPVMTSSPNSRGKGSSKGSKRN

Assays:
[1] = molecular target: T1, 3xFLAG-MINU2 (MINUSCULE2, 3xFLAG-tagged) (Arabidopsis) (UniProt F4K128); assay: affinity purification with mass spectrometry
T1 sequence: B1 chain

[2] = molecular target: TPF2-3xFLAG (TRIPLE PHD FINGERS 2, 3xFLAG-tagged) (Arabidopsis); assay: affinity purification with mass spectrometry

| Molecule | binding [1] | binding [2] |
| --- | --- | --- |
| TRIPLE PHD FINGERS 2 (TPF2), endogenous | binds | – |
| TRIPLE PHD FINGERS 1 (TPF1), endogenous | binds | – |
| B1 | – | binds |

No constants are given. Whether binding was seen depends on the method and setting. Binding seen in cells or lysates may run through a third protein. These calls come from enrichment with a bait or labelling near it, and not all partners need be listed. For part of these data: Where a sequence is shown, tags or fusion partners need not be part of it.
